# Assay results published in article PMC11304990, “Identification of mitochondrial ATP synthase as the cellular target of Ru-polypyridyl-β-carboline complexes by affinity-based protein profiling” (National Science Review, 2024).
# Test system: A549 cells
# Experiment: RNA-sequencing
# Type: cell-based, human
# Details: 10 μM, 12 h
structure (smiles),measurement,setting,value
F[P-](F)(F)(F)(F)F.F[P-](F)(F)(F)(F)F.[Ru+2].c1ccc2c(c1)[nH]c1c(-c3ncc[nH]3)nccc12.c1cnc2c(c1)ccc1cccnc12.c1cnc2c(c1)ccc1cccnc12 [Ru5],DEGs down-regulated,,844
same,DEGs up-regulated,,673
same,Total number of DEGs,"|Fold change| ≥ 2.0, FDR ≤ 0.05",1517
